Test results reported in US12332198B2, “Metabolite based diagnostics for periprosthetic joint infection” (priority 2022, dated 2025).

System: P. aeruginosa PAO1
Experiment: Untargeted NMR-based metabolomics, planktonic versus biofilm
Parameters: species or system Pseudomonas aeruginosa
Conditions: for Biofilm Average Metabolite Peak Volume: PAO1 biofilm lawn on LB agar, 48 hrs; for Biofilm Average Metabolite Peak Volume / Plank Average Metabolite Peak Volume: n=9, 2D 13C-1H HSQC; for Plank Average Metabolite Peak Volume: PAO1 planktonic culture in LB, 24 hrs; for Fold change (Biofilm/Planktonic): metabolite quantity, biofilm relative to planktonic, n=9

Row | SMILES | Biofilm Average Metabolite Peak Volume | Plank Average Metabolite Peak Volume | Fold change (Biofilm/Planktonic) | Fold change (Biofilm/Planktonic) (listed as 5-aminopentanoic acid) | Fold change (Biofilm/Planktonic) (listed as cadaverine) | Fold change (Biofilm/Planktonic) (listed as glutaric acid)
1 | NCCCCC(=O)O [5-Aminopentanoic acid] | 5.967E+08 | 4.143E+09 | 0.144 | 0.14 |  | 
2 | CC(=O)O [Acetic acid] | 1.080E+08 | 3.665E+08 | 0.295 |  |  | 
3 | CC(C)=O [Acetone] | 8.980E+07 | 1.995E+07 | 4.501 |  |  | 
4 | C[N+](C)(C)CC(=O)O [Betaine] | 3.740E+10 | 7.741E+10 | 0.483 |  |  | 
5 | NCCCCCN [Cadaverine] | 1.945E+07 | 9.230E+08 | 0.021 |  | 0.02 | 
6 | CN(C)CC(=O)O [Dimethylglycine] | 2.424E+08 | 8.101E+07 | 2.992 |  |  | 
7 | OC[C@@H](O)[C@@H](O)CO [Erythritol] | 1.197E+08 | 1.995E+07 | 6.000 |  |  | 
8 | O=C(O)[C@H](O)[C@@H](O)[C@H](O)[C@H](O)CO [Gluconic acid] | 2.029E+09 | 1.995E+07 | 101.704 |  |  | 
9 | O=C(O)CCCC(=O)O [Glutaric acid] | 1.388E+08 | 2.981E+09 | 0.047 |  |  | 0.05
10 | CCCCCC(=O)O [Hexanoic acid] | 1.945E+07 | 3.592E+08 | 0.054 |  |  | 
11 | O=S(=O)(O)CCO [Isethionic acid] | 4.467E+07 | 1.995E+07 | 2.239 |  |  | 
12 | CSC[C@H](N)C(=O)O [L-Methylcysteine] | 1.574E+08 | 2.386E+07 | 6.597 |  |  | 
13 | CC(C)[C@H](N)C(=O)O [L-Valine] | 7.037E+08 | 2.732E+09 | 0.258 |  |  | 
14 | CC(O)C(=O)O (stereo not shown) [Lactic acid] | 1.945E+07 | 2.022E+08 | 0.096 |  |  | 
15 | OC[C@H]1O[C@H](O[C@H]2[C@H](O)[C@@H](O)[C@@H](O[C@H]3[C@H](O)[C@@H](O)[C@@H](O[C@H]4[C@H](O)[C@@H](O)C(O)O[C@@H]4CO)O[C@@H]3CO)O[C@@H]2CO)[C@H](O)[C@@H](O)[C@@H]1O (stereo partly shown) [Maltotetraose] | 6.228E+08 | 8.006E+07 | 7.779 |  |  | 
16 | CC(=O)N[C@@H](C)C(=O)O [N-Acetyl-L-Alanine] | 6.816E+08 | 2.600E+08 | 2.622 |  |  | 
17 | O=C(O)c1cccnc1 [Nicotinic acid] | 8.133E+07 | 2.732E+07 | 2.977 |  |  | 
18 | O=c1cc[nH]c(=O)[nH]1 [Uracil] | 8.863E+07 | 1.897E+08 | 0.467 |  |  | 
19 | CCC(N)C(=O)O (stereo not drawn) [alpha-Aminobutyric acid] | 7.573E+07 | 1.248E+09 | 0.061 |  |  | 
20 | OC[C@H]1O[C@H](O)[C@H](O)[C@@H](O)[C@@H]1O [alpha-Glucose] | 9.524E+08 | 3.402E+08 | 2.800 |  |  | 
21 | OC[C@H]1O[C@H](O[C@H]2O[C@H](CO)[C@@H](O)[C@H](O)[C@H]2O)[C@H](O)[C@@H](O)[C@@H]1O [alpha-Trehalose] | 5.259E+09 | 1.972E+08 | 26.668 |  |  | 
22 | NCCC(=O)O [beta-Alanine] | 5.638E+08 | 1.543E+08 | 3.654 |  |  | 
23 | OC[C@H]1O[C@@H](O)[C@H](O)[C@@H](O)[C@@H]1O [beta-Glucose] | 1.175E+09 | 3.022E+08 | 3.888 |  |  | 
24 | OC[C@H]1O[C@@H](O)[C@@H](O)[C@@H](O)[C@@H]1O [beta-Mannose] | 4.034E+07 | 2.352E+08 | 0.172 |  |  | 
25 | NCCCC[C@H](N)C(=O)O [lysine] |  |  | 0.69 |  |  | 
26 | Cc1ccc(C(=O)O)cc1 [p-Toluic acid] | 1.207E+08 | 3.653E+07 | 3.304 |  |  | 
